Source: patent US4638047A, “Enzyme inhibition” (priority 1983, dated 1987)
Part of at least one peptide drawing is inferred or uncertain, most often the ends.

Assays:
[1] = test system: kaolin-cephalin clotting time (KCCT); experiment: Prolongation of kaolin-cephalin clotting time (KCCT) in vitro; type: biochemical; conditions: molar concentration of inhibitor required to double the KCCT
[2] = test system: thrombin-induced platelet aggregation; experiment: Inhibition of thrombin-induced platelet aggregation; type: cell-based
thrombin clotting time = experiment: In vivo prolongation of clotting time (KCCT or thrombin clotting time) in blood samples of rabbits; conditions: for thrombin clotting time after administration: prolonged from 25 seconds

| SMILES | Conc. to double KCCT [1] | Ki [2] | thrombin clotting time after administration (thrombin clotting time; 2.35 mg/Kg) | thrombin clotting time after administration (thrombin clotting time; 4.7 mg/Kg) | potency and in vivo half life compared with heparin (thrombin clotting time; prolongation of thrombin clotting time) |
| --- | --- | --- | --- | --- | --- |
| CC(C)(C)OC(=O)N[C@H](Cc1ccccc1)C(=O)N1CCC[C@H]1C(=O)N[C@@H](CCCNC(=N)N)CNCC(=O)N1CCC[C@H]1C(=O)O [Example H-172] | 813 µM |  |  |  |  |
| CCNC(=O)[C@@H]1CCCN1C(=O)CCC(=O)[C@@H](CCCNC(=N)N)NC(=O)[C@@H]1CCCN1C(=O)[C@@H](Cc1ccccc1)NC(=O)OC(C)(C)C [Example H-170] | 21 µM | 300 nM |  |  |  |
| CCNC(=O)[C@@H]1CCCN1C(=O)CCC(=O)[C@H](CCCNC(=N)N)NC(=O)[C@@H]1CCCN1C(=O)[C@H](N)Cc1ccccc1 [Example H-179] | 15 µM | 400 nM | 220 s | 280 s | comparable to heparin |
